This passage reports binding results from article PMC10402268.

By UniProt entry, the sequences of proteins in these tests, tags left out. Where a name states a change or a piece, a line headed by the entry shows the natural chain unless it says otherwise.
UniProt Q01705: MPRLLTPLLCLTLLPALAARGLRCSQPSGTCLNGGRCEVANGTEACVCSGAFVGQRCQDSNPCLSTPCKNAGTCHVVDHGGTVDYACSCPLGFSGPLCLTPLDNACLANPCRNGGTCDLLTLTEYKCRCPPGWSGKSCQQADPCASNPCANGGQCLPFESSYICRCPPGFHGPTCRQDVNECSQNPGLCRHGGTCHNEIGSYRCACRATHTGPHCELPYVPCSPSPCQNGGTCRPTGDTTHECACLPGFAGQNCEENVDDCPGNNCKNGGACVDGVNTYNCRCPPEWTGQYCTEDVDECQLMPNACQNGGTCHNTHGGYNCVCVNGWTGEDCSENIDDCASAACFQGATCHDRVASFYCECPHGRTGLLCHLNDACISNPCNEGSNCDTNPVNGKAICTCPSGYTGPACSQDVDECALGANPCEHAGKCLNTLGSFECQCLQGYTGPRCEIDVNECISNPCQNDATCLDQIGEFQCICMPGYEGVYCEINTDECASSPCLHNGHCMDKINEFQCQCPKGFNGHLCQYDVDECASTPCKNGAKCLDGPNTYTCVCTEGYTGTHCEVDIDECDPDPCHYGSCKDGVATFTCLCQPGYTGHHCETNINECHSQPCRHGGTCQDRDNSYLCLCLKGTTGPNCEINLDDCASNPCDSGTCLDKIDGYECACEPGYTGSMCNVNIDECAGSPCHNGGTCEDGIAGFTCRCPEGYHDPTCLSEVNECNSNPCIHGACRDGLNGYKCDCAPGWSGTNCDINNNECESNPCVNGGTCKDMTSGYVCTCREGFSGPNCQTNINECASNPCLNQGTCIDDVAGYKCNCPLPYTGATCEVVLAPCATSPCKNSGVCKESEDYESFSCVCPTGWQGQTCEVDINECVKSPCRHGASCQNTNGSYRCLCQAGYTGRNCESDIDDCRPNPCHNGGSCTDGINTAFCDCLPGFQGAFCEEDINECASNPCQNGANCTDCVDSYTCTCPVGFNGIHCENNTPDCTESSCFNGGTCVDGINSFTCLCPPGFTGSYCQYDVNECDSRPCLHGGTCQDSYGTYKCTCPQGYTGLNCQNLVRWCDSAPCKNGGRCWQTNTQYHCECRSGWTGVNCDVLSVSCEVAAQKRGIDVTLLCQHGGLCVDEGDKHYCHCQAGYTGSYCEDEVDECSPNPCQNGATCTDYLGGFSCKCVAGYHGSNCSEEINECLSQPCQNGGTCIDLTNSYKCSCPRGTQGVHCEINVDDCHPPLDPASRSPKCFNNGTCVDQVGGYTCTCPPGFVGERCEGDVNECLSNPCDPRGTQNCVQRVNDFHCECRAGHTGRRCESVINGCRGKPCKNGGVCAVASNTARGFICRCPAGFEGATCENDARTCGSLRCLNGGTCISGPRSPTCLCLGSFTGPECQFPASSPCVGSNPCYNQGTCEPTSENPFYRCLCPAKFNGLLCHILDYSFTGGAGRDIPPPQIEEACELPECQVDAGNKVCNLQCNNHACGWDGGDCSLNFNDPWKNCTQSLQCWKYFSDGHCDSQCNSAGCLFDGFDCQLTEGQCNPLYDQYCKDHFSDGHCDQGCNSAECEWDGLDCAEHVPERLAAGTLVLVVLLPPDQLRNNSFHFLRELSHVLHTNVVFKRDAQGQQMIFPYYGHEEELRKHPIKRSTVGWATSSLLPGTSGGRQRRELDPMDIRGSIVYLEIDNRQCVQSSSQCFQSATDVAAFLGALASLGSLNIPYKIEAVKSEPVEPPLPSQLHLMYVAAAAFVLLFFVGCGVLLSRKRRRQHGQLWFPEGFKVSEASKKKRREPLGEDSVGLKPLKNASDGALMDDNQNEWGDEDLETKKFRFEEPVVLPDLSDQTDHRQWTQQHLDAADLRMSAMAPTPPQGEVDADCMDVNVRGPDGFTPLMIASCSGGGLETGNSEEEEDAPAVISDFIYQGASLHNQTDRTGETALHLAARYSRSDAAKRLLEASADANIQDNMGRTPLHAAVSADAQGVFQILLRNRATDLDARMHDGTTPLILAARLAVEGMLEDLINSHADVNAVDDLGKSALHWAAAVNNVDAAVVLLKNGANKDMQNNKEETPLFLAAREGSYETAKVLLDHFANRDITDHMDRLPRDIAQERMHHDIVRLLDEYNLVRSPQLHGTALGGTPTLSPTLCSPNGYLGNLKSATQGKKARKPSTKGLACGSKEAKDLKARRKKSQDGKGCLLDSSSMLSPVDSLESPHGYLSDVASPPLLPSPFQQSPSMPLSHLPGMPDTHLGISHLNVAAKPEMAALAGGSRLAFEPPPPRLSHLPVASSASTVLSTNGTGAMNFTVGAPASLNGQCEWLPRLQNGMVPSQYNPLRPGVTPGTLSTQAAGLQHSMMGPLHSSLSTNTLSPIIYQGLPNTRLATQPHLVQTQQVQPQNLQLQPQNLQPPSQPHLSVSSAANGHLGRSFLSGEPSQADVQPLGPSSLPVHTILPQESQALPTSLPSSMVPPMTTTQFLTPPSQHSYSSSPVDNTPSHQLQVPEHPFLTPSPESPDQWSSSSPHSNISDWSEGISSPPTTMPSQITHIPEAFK
UniProt Q61982: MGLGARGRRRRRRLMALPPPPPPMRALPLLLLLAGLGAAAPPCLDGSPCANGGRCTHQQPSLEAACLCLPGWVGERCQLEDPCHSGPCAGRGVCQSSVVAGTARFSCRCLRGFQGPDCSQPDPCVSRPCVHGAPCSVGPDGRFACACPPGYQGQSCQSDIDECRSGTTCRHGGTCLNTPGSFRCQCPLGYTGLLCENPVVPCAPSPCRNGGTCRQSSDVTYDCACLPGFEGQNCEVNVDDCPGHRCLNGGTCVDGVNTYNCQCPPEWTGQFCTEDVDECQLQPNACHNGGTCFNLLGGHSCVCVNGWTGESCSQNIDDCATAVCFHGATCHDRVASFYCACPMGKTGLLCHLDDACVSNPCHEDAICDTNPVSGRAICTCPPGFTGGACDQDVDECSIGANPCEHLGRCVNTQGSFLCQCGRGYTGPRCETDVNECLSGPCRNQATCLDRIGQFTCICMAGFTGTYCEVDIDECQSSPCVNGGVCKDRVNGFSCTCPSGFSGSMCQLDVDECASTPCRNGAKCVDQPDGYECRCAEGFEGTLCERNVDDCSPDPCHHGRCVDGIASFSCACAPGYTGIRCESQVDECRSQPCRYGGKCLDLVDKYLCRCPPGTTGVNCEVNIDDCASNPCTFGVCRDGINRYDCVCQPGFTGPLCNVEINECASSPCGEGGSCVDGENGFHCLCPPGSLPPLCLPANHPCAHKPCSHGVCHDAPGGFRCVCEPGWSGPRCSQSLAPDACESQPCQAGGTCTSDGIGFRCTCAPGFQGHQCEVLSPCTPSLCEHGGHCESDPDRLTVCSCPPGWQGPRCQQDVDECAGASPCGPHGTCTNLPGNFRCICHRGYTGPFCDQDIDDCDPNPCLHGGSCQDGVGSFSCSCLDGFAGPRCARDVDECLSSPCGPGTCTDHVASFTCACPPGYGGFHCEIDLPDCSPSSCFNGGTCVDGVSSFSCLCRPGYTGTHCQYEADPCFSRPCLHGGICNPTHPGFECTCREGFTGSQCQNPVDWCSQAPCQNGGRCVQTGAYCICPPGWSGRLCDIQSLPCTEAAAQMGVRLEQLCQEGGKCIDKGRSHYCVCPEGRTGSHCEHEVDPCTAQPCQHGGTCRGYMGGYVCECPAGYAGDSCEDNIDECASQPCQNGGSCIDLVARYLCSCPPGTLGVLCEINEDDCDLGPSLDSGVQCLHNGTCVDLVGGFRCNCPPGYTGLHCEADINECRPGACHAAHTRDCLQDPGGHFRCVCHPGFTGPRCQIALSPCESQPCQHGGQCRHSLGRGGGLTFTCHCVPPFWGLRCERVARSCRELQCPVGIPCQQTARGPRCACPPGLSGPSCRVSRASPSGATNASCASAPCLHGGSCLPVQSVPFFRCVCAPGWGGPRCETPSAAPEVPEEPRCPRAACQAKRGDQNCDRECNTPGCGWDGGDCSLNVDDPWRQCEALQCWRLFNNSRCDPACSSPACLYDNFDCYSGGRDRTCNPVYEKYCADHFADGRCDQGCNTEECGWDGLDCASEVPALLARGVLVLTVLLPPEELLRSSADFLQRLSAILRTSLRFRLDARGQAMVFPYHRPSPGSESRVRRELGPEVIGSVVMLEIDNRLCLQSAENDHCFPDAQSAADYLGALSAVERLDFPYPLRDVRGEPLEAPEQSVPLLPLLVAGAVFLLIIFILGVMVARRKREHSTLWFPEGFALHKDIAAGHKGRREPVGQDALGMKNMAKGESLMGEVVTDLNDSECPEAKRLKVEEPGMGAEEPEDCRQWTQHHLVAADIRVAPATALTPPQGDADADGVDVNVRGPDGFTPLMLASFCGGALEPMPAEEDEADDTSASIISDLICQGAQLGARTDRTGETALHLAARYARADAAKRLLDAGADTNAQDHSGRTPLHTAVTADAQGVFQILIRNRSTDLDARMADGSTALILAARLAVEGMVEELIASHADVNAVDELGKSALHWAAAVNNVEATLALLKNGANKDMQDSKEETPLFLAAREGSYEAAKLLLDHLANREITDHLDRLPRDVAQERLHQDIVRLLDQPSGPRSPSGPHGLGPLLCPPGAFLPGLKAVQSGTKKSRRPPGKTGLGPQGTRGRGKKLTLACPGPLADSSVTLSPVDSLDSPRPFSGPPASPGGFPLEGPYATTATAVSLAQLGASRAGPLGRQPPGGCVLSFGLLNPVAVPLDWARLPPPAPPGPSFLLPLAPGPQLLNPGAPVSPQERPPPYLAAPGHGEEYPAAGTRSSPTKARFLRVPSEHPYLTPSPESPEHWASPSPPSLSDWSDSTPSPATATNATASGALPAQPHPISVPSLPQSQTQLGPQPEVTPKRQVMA

Results are given in words; binding and its absence hold for the method and conditions named. Binding seen in cells or lysates may run through a third protein. Binding can be weak; no strength is given.

What all share (assay): co-IP; 293T cells co-transfected with one FLAG-tagged and one HA- or MYC-tagged NICD; lysates 48 h after transfection; anti-FLAG resin; western blot with anti-HA or anti-MYC
Experiment [1] has as its target N1ICD lacking the C-terminus (RAM/Ank), FLAG-tagged (mouse) (UniProt Q01705).
Experiment [2] concerns the target isolated N1ICD ankyrin domain (Ank), FLAG-tagged (mouse) (UniProt Q01705).
Experiment [3] deals with Notch2 intracellular domain (N2ICD), mouse (mouse) (UniProt O35516).
Experiment [4] deals with Notch3 intracellular domain (N3ICD), mouse (mouse) (UniProt Q61982).
Experiment [5] addresses Notch4 intracellular domain (N4ICD), mouse (mouse) (UniProt P31695).

With “Notch4 intracellular domain (N4ICD), mouse (from UniProt P31695) (domain or fragment)”, the binding result in experiment [1], in experiment [2], in experiment [3] and in experiment [4] was “binds” throughout.

Take “Notch2 intracellular domain (N2ICD), mouse (from UniProt O35516) (domain or fragment)”: the binding result in experiment [4] is “binds weakly”; in experiment [5] it was “binds”.

For “Notch1 intracellular domain (N1ICD), mouse (from UniProt Q01705) (domain or fragment)”, the binding result in experiment [5] was “binds”.

For “Notch3 intracellular domain (N3ICD), mouse (from UniProt Q61982) (domain or fragment)”, the binding entry in experiment [3] and in experiment [5] was “binds” each time.
